PubChem BioAssay AID1508600 (Functional Genomics Laboratory (NCATS/FGL), 2020)
In all, about 53,000 sequences went through this assay and about 3,700 (7%) were called active.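 The calls were made as follows: active = gene knockdowns whose robust z-score for IL-1 alpha signal is at least 2 or at most -2, so actives lie on both sides; inactive = the rest.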 This is one part of the list.

Assay: Components of the Cytosolic LPS Sensing Pathway: Gene Identification via Genome-wide siRNA Screen;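 also: robust z of the log signal after scaling to non-targeting control siRNA wells of the plate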
Conditions: RAW264.7 macrophages, IL-1a HTRF, actives lie on both sides, screened at 100 nM (by protocol), cells primed 5 h with Pam3CSK4 first
Procedure, shortened: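 IL-1a HTRF of supernatants after 24 hour LipidA transfection of Pam3CSK4-primed (5 hours) RAW264.7 cells, 48h post-siRNA transfection (100 nM). Scores: percent of plate negative-control median, then log-based robust z-score.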

| Sequence | z-score |
| --- | --- |
| GGAUCCUUCUCUGAAGCAGTT against Olfr657 | inactive: -0.39 |
| GGAAGAUUUACAAAAACUGTT against Nudt18 | inactive: -0.0754 |
| GGUGCUGAAGAUGACAUCCTT against Scai | inactive: 0.434 |
| GCUACAAUCUAGAACAAGATT against Olfr361 | inactive: -0.915 |
| CCUUCACUCUGUAAGGUGCTT against Card19 | inactive: -0.276 |
| GGCGAAGGGCAAGAAUAAATT against Hes1 | active: 2.16 |
| GGUCUCAAGGACAAAAAAGTT against Sult3a1 | inactive: -1.48 |
| GGCCAAUAUAGGUUAUAGATT against Anapc11 | inactive: -0.456 |
| GCUAACUCUUCGGCAGGAATT against Sspo | inactive: 1.62 |
| GGUUCAAAUGUUCUCCAUATT against 9530080O11Rik | active: 2.55 |
| GGAUGAAUGUUGCUUGUGUTT against Arhgef37 | inactive: -0.243 |
| GGUGCAUUUUCUAGAAUCATT against Usp45 | inactive: 0.933 |
| GGUGAAUUUCCUUCUACAUTT against Tas1r1 | inactive: -1.56 |
| GCAUCAUGGUCACAAAUGGTT against Ncr1 | inactive: -0.613 |
| GGAGGAUCCACAUGAUGACTT against Fads6 | inactive: -1.48 |
| GGCAUGGAGAGAAGAAAAGTT against Rassf7 | inactive: -0.433 |
| GGAGUGAACCUUUGAAAGUTT against Rbak | inactive: 1.82 |
| GGCAAGAGAUCAUAAACUGTT against Neurl1b | inactive: -0.421 |
| GGUGAUGCAAGUGGUUCGGTT against Elmo3 | inactive: -0.523 |
| GGAUUUUAAUGUAGGAGAGTT against Pip4k2b | inactive: -0.77 |
| GGCCUUCAAGGUGUUUGAGTT against Flcn | inactive: -1.61 |
| CGAUAAAAGAGAGAUGAUUTT against Rap1gds1 | inactive: 0.699 |

Already shown: an excerpt of the list.

| Sequence | z-score |
| --- | --- |
| GGAUUUUAAUGUAGGAGAGTT against Pip4k2b | inactive: -0.77 |
| GGCCUUCAAGGUGUUUGAGTT against Flcn | inactive: -1.61 |
| CGAUAAAAGAGAGAUGAUUTT against Rap1gds1 | inactive: 0.699 |

Additional records.

| Sequence | z-score |
| --- | --- |
| CGAAUAUCCAGAAAUCAAUTT against Sf1 | inactive: -1.52 |
| GCCCUGGAGUCCUAAUAAATT against Pmvk | inactive: -0.105 |
| GGAAACUGGCUUAGCAAUGTT against Trappc4 | inactive: -0.333 |
| GCAGCAAUACAUCCUUCAUTT against Cdh1 | inactive: 1.12 |
| GGUGAGGUUCAAACAUUCUTT against Sdf2 | inactive: 0.0627 |
| GGAGGUGUGGGUACCUUCUTT against Snx30 | inactive: -0.746 |
| GCUGAACAUUAGCUUCAAUTT against Lrrc9 | inactive: -1.42 |
| GGCAUGCAACUAUAUAGUUTT against Slfn4 | inactive: 0.524 |
| GGGAAAUCUACUUUGCGUATT against Khdrbs3 | inactive: 0.103 |
| GCAUAGAAACCAUGCACAUTT against Acot2 | active: 3.28 |
| GGCACAAGAUUAUUUAAGUTT against Tmem68 | inactive: 0.362 |
| GGAAAUGGUCCCUCUGUGUTT against Tspoap1 | active: -2.99 |
| GGUGGUUCUCAGCUGUGUATT against Arhgef18 | inactive: -1.08 |
| CGAUACCCAACUGUUGAAATT against Ap5m1 | inactive: 1.12 |
| GGUCGACUUAAGAUAAUAATT against Itgb6 | inactive: -0.294 |
| UCCUAGAGUCAUCAUCAUATT against A530064D06Rik | inactive: -0.44 |
| CGCGAAGGGAAGGGUUGUATT against Pfn4 | inactive: 0.625 |
| GGAUGGAAGCGUAAAUUUCTT against Angpt4 | inactive: 0.781 |
| GCAUGGAGAGACAGUUAACTT against Ift74 | inactive: 1.07 |
| GCUACAGGUAGACAUUCCATT against Ubn1 | inactive: -0.184 |
| GGCAACAUAAUAAUUGCAGTT against Olfr1212 | inactive: 0.635 |
| GGUCAAACUUAGCGACAAUTT against Zdhhc8 | inactive: 0.576 |

| Sequence | z-score |
| --- | --- |
| GGCCAAACCAUCAUGCAAGTT against Nfya | inactive: 0.455 |
| GGACAUAGUAUACGAAAAUTT against Zfp341 | inactive: 0.371 |
| CCAUUUUGCCUGUGAUAUGTT against Olfr1254 | inactive: 0.022 |
| CCAAUUCGUGUUAAGGAACTT against Riox2 | inactive: 0.212 |
| CCUGGUAAAAGACUGGGCUTT against Dnal1 | inactive: 1.76 |
| GGAGGCAGCCAAAGAAAACTT against Bmp8a | inactive: 0.462 |
| GGCAAAUAGUGACCACACGTT against Dmp1 | inactive: -0.593 |
| GGACUUCAUCUCCAAACGCTT against Snx18 | inactive: 0.286 |
| GGACGUGAACCAGGAUGUUTT against Cblc | inactive: -0.754 |
| CGAUGUGGACGAGAAGCUATT against Asap2 | inactive: -0.702 |
| GCGCAGGAUACCCUAUCUATT against 4930542C12Rik | inactive: 0.52 |
| GGCUGGCAAUGUGAGCAGUTT against Gbx1 | inactive: 0.914 |
| GGUAUUGCUUUCACAUUAUTT against Efr3a | inactive: 0.434 |
| GGGUGACUAUGAGAAGGAGTT against Lmx1b | inactive: -0.841 |
| CGCUCGUUACCUAAAGCAGTT against Nwd1 | active: -2.78 |
| GGACCUAUAAGAACAGUGATT against Psmf1 | inactive: 0.436 |
| CCAUUGAAAAACUGGACAGTT against Olfr1463 | active: 3.26 |
| GCUACGCAAUAAGACCACATT against Lamc3 | active: 2.25 |
| GGGACCAAGAAGGAUAACUTT against Flrt1 | inactive: 1.4 |
| GCUGGCCUUAUGUAAAUCUTT against Galc | inactive: -0.756 |
| GGCAUCUGUAAGCCAGAUCTT against Acad10 | inactive: -0.306 |
| GGCUACGGUGAUAGAGAUGTT against Rbmxl1 | inactive: 1.99 |

Taken from above.
Value of CGCUCGUUACCUAAAGCAGTT against Nwd1 under z-score: active: -2.78
Value of GGACCUAUAAGAACAGUGATT against Psmf1 under z-score: inactive: 0.436
Value of CCAAUUCGUGUUAAGGAACTT against Riox2 under z-score: inactive: 0.212

Further entries

| Sequence | z-score |
| --- | --- |
| GGAAGAUGAUGAUCAAACUTT against Zbed4 | inactive: -0.828 |
| GCCACGACCUGGAACAACUTT against Taf6l | inactive: -0.479 |
| GGAGAAUGAAGAGUUAGACTT against Nfu1 | inactive: 0.608 |
| CCAAGUUUAACAUCCAGGGTT against Pfkm | inactive: -0.126 |
| GGGAUUGGCUACGACUUCATT against Cbs | active: 2.06 |
| GGUUUGUCAACAAGUGUCATT against Dicer1 | active: -2.17 |
| GCCACGUUCAAACAGUACCTT against Slc1a7 | active: 3.94 |
| GUCCCUGAACCUGUGGUAUTT against Emp3 | inactive: 1.26 |
| GGAACAGAGAUAUGAAACATT against Olfr738 | active: -2.4 |
| GGCUCCAAUAAAGUGCCUUTT against Elf3 | inactive: 1.46 |
| GGUGAUACAGAUUCUAGGUTT against Spaca6 | inactive: -0.434 |
| GCUAUUGGUGUAUUUCAAUTT against Tecrl | inactive: -0.876 |
| UGACGGUUCUAUUGAUUACTT against Smim19 | inactive: -1.64 |
| GGCUGACCCUAGAAAGACATT against Lrrc49 | inactive: 1.18 |
| GGAAAAAAGAAAUCAGGAUTT against Luc7l | inactive: 0.278 |
| CCUAACUGCUAAAUGGUGUTT against Irf1 | inactive: -0.168 |
| GGAAAUUUGUGAAAGGACATT against Gata4 | inactive: -0.542 |
| GCUUGUAAUGCAGGUUUAATT against Wipf2 | inactive: 1.94 |
| GCCUAAUAAGGAGAAACCATT against Car9 | inactive: -1.42 |
| CCGCGUGUCUGCUAUCAUCTT against Wdfy1 | inactive: 0.418 |
| GUGCUACAUUCUGUCGGGATT against Tm2d3 | inactive: 1.17 |
| GCGAUACAAAGCUAAUCCCTT against 3110009E18Rik | inactive: -1.13 |

| Sequence | z-score |
| --- | --- |
| GGUGCAUGAUUUCAGAAUATT against Rccd1 | inactive: 0.454 |
| GGGACAAUGAAUGUGAUCUTT against Adam39 | active: -2.81 |
| GGAGAACCUCAAUGACGUGTT against Prtn3 | inactive: -1.08 |
| GGAAAUAAUGACCAAGUACTT against Grk5 | inactive: -1.32 |
| GGAGUCCAUUUCAUGUUUUTT against Tiparp | inactive: -1.56 |
| GCAUCAGAUUAUCUCACUGTT against Mtrf1l | inactive: 0.261 |
| CCAUUCUCAGGCAAAUACUTT against Pid1 | active: 2.11 |
| GGCCACAUGAGAUUGCUUUTT against Tnfrsf13c | inactive: -0.537 |
| GCGCGAGUUAUUGAUUCCGTT against Wee1 | inactive: -0.561 |
| GGACAAGAAGUGUGUAUACTT against Mrc2 | inactive: -1.77 |
| GGAGAUUGAGGAGGAGGCUTT against Incenp | inactive: -1.41 |
| GCCUGUCAGAUAAGUUUAATT against Rbpms2 | inactive: 0.196 |
| GGAAAGCUUCAAAAUGGUGTT against Foxj2 | inactive: -1.26 |
| CCAUUGAAAUUUCCAUCUGTT against Baalc | inactive: 0.115 |
| GGAAAAACUGGGAAUGGCUTT against Fbln7 | inactive: -0.0905 |
| GGCUGAUGUGUUGAAGAUUTT against Cetn3 | inactive: -0.397 |
| GGCUUUUGUUUCUUAUGUCTT against Gbp9 | inactive: -0.871 |
| GGUAUCUUUAGGUUUCUGGTT against Vmn2r37 | inactive: 0.499 |
| GGGUGUCUUUCCUGUGUGATT against Pkmyt1 | inactive: -0.804 |

2 entries from above, set out differently:
Sequence,z-score
GGCACAAGAUUAUUUAAGUTT against Tmem68,inactive: 0.362
GGAAAUGGUCCCUCUGUGUTT against Tspoap1,active: -2.99
